# According to PubChem BioAssay (NCATS):
# Some of the results follow. The main result of the screen is listed elsewhere. These columns were measured beside it and carry no call. For some assays here: Most of these compounds were active or inconclusive in the main read-out, so they are no random draw. The note in brackets gives the kind of curve behind each potency; many fits are weak.
# Legend:
# [1] = A High-Content qHTS Against Drug Library for the Identification of Small Molecules that Inhibit DYT1 Early Onset Primary Dystonia-Associated Cell Pathology (AID 1645839); conditions: HEK293 Flp-In EGFP-delE TorsinA, punctate imaging, 48 h; measured here: cell count cytotoxicity
# Procedure, shortened: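 Flp-In T-REx 293 cells with tetracycline-inducible EGFP-delE hTOR1A (WT EGFP-hTOR1A as reference), 800 cells/well; compound added with tetracycline, 48 h at 37 C. Fixed, permeabilized cells imaged; %pathology (punctate TorsinA) primary, cell count counterscreen.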
# [2] = qHTS for identification of novel therapeutic agents for treatment of microphthalmiaassociated transcription factor (MiT) renal cell carcinoma (RCC) (AID 1963991); conditions: CellTiter-Glo, 48 h; for z-score: stronger effect = lower value
# Procedure, shortened: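 Three TFE3-fusion RCC lines (UOK109, UOK124, UOK145), 500 cells/well in complete medium, were treated with MIPE 4.0 compounds for 48 hours at 37 C. Viability was by CellTiter-Glo luminescence, normalized to DMSO (100%) and empty wells (0%); curves fitted over 11 concentrations.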
# [3] = S16 Schwann cell PMP22 intronic element beta-lactamase assay (AID 624044); conditions: S16 rat Schwann cells, PMP22 element beta-lactamase FRET, 24 h
# Procedure, shortened: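 Rat S16 Schwann cells with beta-Lac driven by a PMP22 intronic element, compound-treated 24 h at 37 °C. LiveBLAzer FRET B/G read: 460 nm normalized to potassium clavulanate vs DMSO; 535 nm FRET as viability; concentration-effect curves classified.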
# [4] = qHTS drug screen for cell cycle checkpoint inhibitors in PARPi-resistant BRCA-mutant ovarian cancer cell lines. (AID 1963452); conditions: PEO1/OlaR viability, CellTiter-Glo luminescence, 96 h
# Procedure, shortened: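 PEO1, PEO4 and PEO1/OlaR ovarian cancer cells, 600 per well, exposed 96 h at 37C to a dilution series. Viability read by CellTiter-Glo luminescence, normalized to DMSO and empty wells; activity summarized as Z-AUC.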
# [5] = qHTS assay for small molecule antagonists of androgen receptor signaling (AID 588516); conditions: AR-UAS-bla HEK293, beta-lactamase ratio, antagonist mode, 16 h
# Procedure, shortened: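 Antagonist mode: inhibition of R1881-stimulated (10 nM final) bla reporter in GeneBLAzer AR HEK 293 cells, 16 h at 37C, compounds titrated. IC50 and efficacy from Hill-equation fits of 405/460–530 nm FRET ratios.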
# [6] = qHTS Assay for Modulators of Human Peripheral Myelin Protein 22 (PMP22) Expression/Activity (AID 1967); conditions: Cell-based PMP22 reporter, dual-color luciferase ratio
# Procedure, shortened: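 Readout is the corrected green/red luminescence ratio after 24 h compound exposure, normalised to untreated cells (0%). Engineered MSC80 mouse Schwann cells express green luciferase from the mouse Pmp22 promoter and red luciferase from EF-alpha as internal control.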
# [7] = TFE3-RCC UOK109 viability, measured here: UOK109 Z-AUC
# [8] = TFE3-RCC viability, measured here: UOK124 Z-AUC
# [9] = TFE3-RCC viability, measured here: UOK124 cell viability
# [10] = TFE3-RCC viability, measured here: UOK145 Z-AUC
# [11] = measured here: 460 nm blue channel
# [12] = measured here: PEO1 parental viability
# [13] = TFE3-RCC viability, measured here: UOK145 cell viability
smiles,measurement,setting,value
CN1CCN(C2=Nc3cc(Cl)ccc3Nc3ccccc32)CC1,AC50,[1],"7.94 µM [falling, partial curve]"
same,z-score,[2]; [7],0.318
same,z-score,[2]; [8],0.473
same,AC50,[2]; [9],"18.7 µM [falling, partial curve]"
same,z-score,[2]; [10],0.557
C=C(c1ccc(C(=O)O)cc1)c1cc2c(cc1C)C(C)(C)CCC2(C)C,AC50,[3]; measured here: 530 nm viability channel,"31.6 µM [rising, single point]"
same,AC50,[1],"35.5 µM [falling, single point]"
same,AC50,[4]; measured here: PEO4 viability,"17.4 µM [falling, partial curve, poor fit]"
CC1(CN2CCC(n3c(=O)[nH]c4ccccc43)CC2)OCc2ccccc2-n2cccc21 (centres undefined),AC50,[3]; [11],"12.6 µM [falling, single point]"
same,AC50,[1],"35.5 µM [falling, single point]"
same,AC50,[4]; [12],"19.5 µM [falling, single point]"
same,AC50,[4]; measured here: PEO4 viability,"15.5 µM [falling, single point]"
same,z-score,[2]; [7],0.7
same,z-score,[2]; [8],0.201
same,z-score,[2]; [10],0.299
same,AC50,[2]; [13],"23.5 µM [falling, partial curve, poor fit]"
CCCCCCCCOc1ccccc1C(=O)Nc1ccc(C(=O)OCC[N+](C)(CC)CC)cc1,AC50,[1],"35.5 µM [falling, single point]"
same,z-score,[2]; [7],0.393
same,z-score,[2]; [8],0.0343
same,AC50,[2]; [9],"20.9 µM [falling, single point]"
same,z-score,[2]; [10],0.18
COc1cc2nc(N(C)CCCNC(=O)C3CCCO3)nc(N)c2cc1OC (centres undefined),AC50,[1],"35.5 µM [rising, single point]"
same,z-score,[2]; [7],0.164
same,z-score,[2]; [8],0.132
same,AC50,[2]; [9],"0.00148 µM [rising, full curve]"
same,z-score,[2]; [10],1.27
Oc1c(Cl)cc(Cl)c2cccnc12,AC50,[3]; [11],"17.8 µM [falling, partial curve]"
same,AC50,[1],"5.62 µM [falling, full curve, poor fit]"
same,AC50,[4]; [12],"13.8 µM [falling, single point]"
same,AC50,[4]; measured here: PEO4 viability,"13.8 µM [falling, partial curve]"
same,z-score,[2]; [7],0.499
same,z-score,[2]; [8],-0.0712
same,AC50,[2]; [9],"13.2 µM [falling, partial curve]"
same,z-score,[2]; [10],0.484
same,AC50,[2]; [13],"18.7 µM [falling, partial curve]"
CNC(=O)c1cc(Oc2ccc(NC(=O)Nc3ccc(Cl)c(C(F)(F)F)c3)cc2)ccn1,AC50,[3]; [11],"25.1 µM [falling, partial curve]"
same,AC50,[1],"35.5 µM [falling, single point]"
same,AC50,[4]; [12],"4.9 µM [falling, full curve]"
same,AC50,[4]; measured here: PEO4 viability,"5.49 µM [falling, partial curve]"
same,z-score,[2]; [7],0.467
same,z-score,[2]; [8],0.938
same,AC50,[2]; [9],"23.5 µM [falling, partial curve]"
same,z-score,[2]; [10],-0.228
same,AC50,[2]; [13],"23.5 µM [falling, partial curve]"
COC(=O)C1=C(C)NC(C)=C(C(=O)OCCCN2CCC(c3ccccc3)(c3ccccc3)CC2)C1c1cccc([N+](=O)[O-])c1 (centres undefined),AC50,[3]; [11],"22.4 µM [falling, single point]"
same,AC50,[1],"0.708 µM [falling, full curve, poor fit]"
same,AC50,[4]; [12],"19.5 µM [falling, partial curve]"
same,AC50,[4]; measured here: PEO4 viability,"12.3 µM [falling, partial curve]"
Cc1cccc(C)c1OCC(=O)N[C@@H](Cc1ccccc1)[C@@H](O)C[C@H](Cc1ccccc1)NC(=O)[C@H](C(C)C)N1CCCNC1=O,AC50,[3]; [11],"4.46 µM [falling, partial curve, poor fit]"
same,AC50,[1],"3.55 µM [falling, partial curve, poor fit]"
same,z-score,[2]; [7],0.266
same,z-score,[2]; [8],0.183
same,AC50,[2]; [9],"18.7 µM [falling, partial curve]"
same,z-score,[2]; [10],0.406
Cc1c(O)cccc1C(=O)N[C@@H](CSc1ccccc1)[C@H](O)CN1C[C@H]2CCCC[C@H]2C[C@H]1C(=O)NC(C)(C)C,AC50,[5]; measured here: W460 blue channel fit,"25.1 µM [falling, full curve]"
same,AC50,"[5]; measured here: W530 green channel, cytotoxicity/artifact","11.2 µM [rising, partial curve, poor fit]"
same,AC50,[1],"5.62 µM [falling, full curve, poor fit]"
same,AC50,[4]; [12],"13.8 µM [falling, single point]"
same,AC50,[4]; measured here: PEO4 viability,"24.5 µM [falling, single point]"
COc1cc2c(N3CCN(C(=O)Nc4ccc(OC(C)C)cc4)CC3)ncnc2cc1OCCCN1CCCCC1,AC50,[1],"11.2 µM [falling, partial curve, poor fit]"
same,z-score,[2]; [7],0.378
same,z-score,[2]; [8],-2.57
same,AC50,[2]; [9],"23.5 µM [falling, single point]"
same,z-score,[2]; [10],0.104
same,AC50,[2]; [13],"37.2 µM [falling, single point]"
CC(=O)SC[C@@H](C)C(=O)N1CCC[C@H]1C(=O)N[C@@H](Cc1ccccc1)C(=O)O,AC50,[1],"12.6 µM [rising, single point]"
same,z-score,[2]; [7],0.96
same,z-score,[2]; [8],0.513
same,z-score,[2]; [10],0.827
CN[C@H]1CC[C@@H](c2ccc(Cl)c(Cl)c2)c2ccccc21,AC50,"[6]; measured here: green reporter channel AC50, mouse Pmp22 promoter in mouse Schwann cells","47.8 µM [falling, partial curve]"
same,AC50,"[6]; measured here: red reporter channel AC50, EF-alpha promoter control reporter in MSC80 mouse Schwann cells","33.8 µM [falling, full curve]"
same,AC50,[1],"7.08 µM [falling, partial curve, poor fit]"
same,AC50,[4]; [12],"19.5 µM [falling, partial curve]"
same,AC50,[4]; measured here: PEO4 viability,"19.5 µM [falling, partial curve]"

# Reprinted from the entries so far (two entries):
smiles,measurement,setting,value
CNC(=O)c1cc(Oc2ccc(NC(=O)Nc3ccc(Cl)c(C(F)(F)F)c3)cc2)ccn1,AC50,[2]; [13],"23.5 µM [falling, partial curve]"
COC(=O)C1=C(C)NC(C)=C(C(=O)OCCCN2CCC(c3ccccc3)(c3ccccc3)CC2)C1c1cccc([N+](=O)[O-])c1 (centres undefined),AC50,[3]; [11],"22.4 µM [falling, single point]"
